Assay results: PubChem BioAssay AID1487 (National Center for Advancing Translational Sciences (NCATS), 2009)
“And” between values parts separate entries of the source, which are not always exact repeats. Equal entries are not always repeated. This is one part of the list. Shown are side measurements of this screen, not its main read-out; they come without a call. The list favours compounds with an active or inconclusive main result. The note in brackets gives the kind of curve behind each potency; many fits are weak.

Test: qHTS Assay for Modulators of Lamin A Splicing
Settings: HeLa LMNA splicing GFP/RFP minigene ratio, 48 h
In short: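 Read-out is the ratio of GFP to DsRed2 object intensity, acquired by 488 nm laser-scanning cytometry on HeLa lamin A-EGFP minigene reporter cells. Compound incubation 48 hrs at 37 °C in Opti-MEM with 2% FBS; DMSO 0.5% final.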

[1] = measured here: GFP splicing reporter channel
[2] = measured here: RFP viability control channel

SMILES	AC50 [1]	AC50 [2]
Cc1cccc(NS(=O)(=O)c2ccc(C3CCCCC3)cc2)n1	11.2 µM [rising, single point]	14.1 µM [rising, single point]
COc1cccc2cc(-c3csc(CCn4nc(C)cc4C)n3)c(=O)oc12		22.4 µM [rising, partial curve, poor fit]
COc1ccc(C(=O)CSc2nnc(CNc3nc(-c4ccccc4)cs3)n2C)cc1	15.8 µM [rising, single point]	35.5 µM [rising, single point]
O=C(CSc1ccccn1)N1CCN(c2cccc(Cl)c2)CC1		31.6 µM [rising, single point]
COc1cc(S(=O)(=O)N(Cc2ccc(C)cc2)C2CCCCC2)ccc1-n1cnnn1	14.1 µM [rising, partial curve, poor fit]	15.8 µM [rising, single point]
Oc1c(C=C2N=c3ccccc3=N2)sc(=S)n1-c1ccc(F)cc1	3.98 µM [rising, full curve, poor fit]	31.6 µM [falling, single point] and 12.6 µM [rising, partial curve]
Oc1[nH]c2ccccc2c1C=Nc1ccc2c(c1)OCCO2		14.1 µM [rising, partial curve]
CCc1nnc(NC(=O)[C@@H](NC(=O)c2cccc(S(=O)(=O)N3CCOCC3)c2)C(C)C)s1		5.62 µM [falling, single point]
O=C1OC(c2cccs2)=N/C1=C/c1ccc(-c2cccc(C(=O)O)c2)o1		31.6 µM [rising, single point]
Cc1ccc(N=Nc2c(N)[nH]n3c(=O)cc(C)nc23)cc1	35.5 µM [rising, single point]	35.5 µM [rising, single point]
O=C(c1cc2c(s1)CCCC2)N1CCN(Cc2ccc3c(c2)OCO3)CC1	10 µM [rising, partial curve]	28.2 µM [rising, single point]
CCOc1ccc(CC(=O)NNC(=S)NCCc2ccccc2)cc1		0.891 µM [falling, partial curve, poor fit]
CCCN1C(=O)/C(=C\c2ccncc2)SC1=Nc1ccccc1	35.5 µM [rising, single point]	31.6 µM [rising, single point]
C=CCn1c(NCCc2ccccc2)nc2c1c(=O)n(C)c(=O)n2C	15.8 µM [rising, partial curve]	11.2 µM [rising, partial curve]
Cc1ccc2nc3c(c(N)c2c1)CCN3c1ccccc1		11.2 µM [rising, single point]
COc1ccc(C(=O)Oc2cccc(Nc3ncnc4ccccc34)c2)cc1OC	12.6 µM [rising, partial curve]	15.8 µM [rising, partial curve]
Cc1c(C)n2c3c(cccc13)CC2	0.0251 µM [rising, full curve, poor fit]	0.0282 µM [rising, full curve, poor fit]
COc1cc(/C=N/NC(=S)Nc2cccc(S(=O)(=O)N(C)C)c2)cc(OC)c1O		11.2 µM [rising, partial curve]
COc1cc(-c2nc(-c3ccccc3)c(-c3cccs3)[nH]2)cc(OC)c1OC		20 µM [rising, single point]
CN(C)/C=N/c1c(C#N)cnn1-c1ncnc2sc(-c3ccccc3)cc12		25.1 µM [rising, single point]
Cc1onc(-c2ccccc2)c1C(=O)NNC(=S)NC(=O)/C=C/c1ccccc1		5.62 µM [rising, partial curve, poor fit]
CN(C)S(=O)(=O)c1ccc2c(c1)nc(CCC(=O)Nc1ccc3c(c1)OCO3)n2C	10 µM [rising, single point]	12.6 µM [rising, single point]
Cc1cccc2sc(N(Cc3cccnc3)C(=O)c3cccs3)nc12	7.08 µM [falling, partial curve, poor fit]	
O=C(N/N=C/c1c(O)n(-c2ccccc2Cl)c(=O)c2ccccc12)C1COc2ccccc2O1 (stereo unspecified)		25.1 µM [rising, single point]
CCOc1cc2[nH]c(=O)n(CCCCC(=O)N3CCN(c4cccc(Cl)c4)CC3)c(=O)c2cc1OCC	25.1 µM [falling, single point]	
Cc1ccccc1C(=O)NC(=S)Nc1ccccc1[N+](=O)[O-]		10 µM [rising, partial curve, poor fit]
CCOc1cc(S(=O)(=O)NCc2ccncc2)ccc1Cl	0.398 µM [falling, full curve, poor fit]	

SMILES	AC50 [1]	AC50 [2]
COC(=O)c1ccc(NC(=O)CN2C(=O)CCc3cc(S(=O)(=O)N4CCCCC4)ccc32)cc1		17.8 µM [rising, partial curve, poor fit]
COCCCNc1nc(-c2ccncc2)nc2ccccc12	2.82 µM [falling, partial curve, poor fit]	
O=C(NCCSCc1c(F)cccc1Cl)c1ccc(CN2CCOCC2)cc1	15.8 µM [rising, single point]	31.6 µM [rising, single point]
COc1cccc(/C=N/NC(=O)c2[nH]c(C)c(C(=O)N/N=C/c3cccc(OC)c3)c2C)c1		12.6 µM [rising, partial curve]
Cc1cccc(Nc2nnc(SCC3CCCCO3)s2)c1 (stereo unspecified)		35.5 µM [rising, single point]
CC(C)CNC(=O)CSc1nnc(-c2ccccn2)n1Cc1ccccc1	8.91 µM [rising, partial curve, poor fit]	
OC(CNC1CCCC1)COc1ccc(-c2ccccc2)cc1 (stereo unspecified)		35.5 µM [falling, single point]
CCN(CC)S(=O)(=O)c1ccc(Cl)c(C(=O)Nc2ccc(Cl)cc2[N+](=O)[O-])c1	3.98 µM [rising, full curve, poor fit]	6.31 µM [rising, partial curve]
Cc1[nH]c(=O)[nH]c(=O)c1S(=O)(=O)N1CCN(c2ccccc2Cl)CC1	14.1 µM [rising, partial curve, poor fit]	12.6 µM [rising, partial curve]
CCOC(=O)c1cc(-c2ccccc2)n(CCCC(=O)Nc2cccc(C)c2C)c1C		10 µM [falling, partial curve, poor fit]
O=C(O)C1C2C=CC(C2)C1C(=O)OCC1CCCO1 (stereo unspecified)		35.5 µM [falling, partial curve, poor fit]
C=CCSc1nc2sc(C)c(C)c2c(=O)n1CC=C		12.6 µM [rising, single point]
Cc1cc(Oc2ccccc2)nc(SCC(=O)Nc2ccc(Cl)cc2Cl)n1	22.4 µM [rising, single point]	22.4 µM [rising, single point]
Cc1nc(-n2nnc3ccccc32)c2c3c(sc2n1)CCCC3	35.5 µM [rising, single point]	35.5 µM [rising, single point]
Cc1cccc(-n2cc(-c3ccccc3)c3c(NC4CCCC4)ncnc32)c1	20 µM [falling, single point]	
CCOC(=O)c1c(NC(=O)c2ccc(S(=O)(=O)N3CCC(C)CC3)cc2)sc2c1CCN(CC)C2	35.5 µM [falling, single point]	35.5 µM [falling, single point]
Cc1cc(NC(=O)CSc2nc(C3CCCCC3)nc3ccccc23)no1	6.31 µM [falling, single point]	
CCOC(=O)c1ccc(NC(=O)CCC(=O)N2Cc3ccccc3Oc3ncccc32)cc1	5.62 µM [falling, single point]	
CCC(=O)N1CCN(c2ccc(NC(=O)c3cc4ccccc4o3)cc2Cl)CC1	25.1 µM [falling, single point]	35.5 µM [falling, single point]
CCOc1ccccc1NC(=O)/C=C/c1ccccc1[N+](=O)[O-]		0.0794 µM [rising, full curve, poor fit]
O=C(CSc1ccc(-c2ccco2)nn1)N1CCCCCC1	0.0316 µM [rising, full curve, poor fit]	
C=CCn1c(C)cc(C(=O)COc2ccc(C)nc2[N+](=O)[O-])c1C	8.91 µM [rising, partial curve, poor fit]	17.8 µM [rising, partial curve]
CCOC(=O)C1CCN(C(c2cccc(F)c2)c2c(O)cc(C)n(Cc3ccco3)c2=O)CC1 (stereo unspecified)		8.91 µM [rising, partial curve, poor fit]
CSc1nc(-c2ccccc2)c(-c2ccccc2)[nH]1	10 µM [falling, partial curve]	22.4 µM [falling, partial curve, poor fit]
COc1ccc(C2CC(c3cccs3)=NN2S(C)(=O)=O)cc1OC (stereo unspecified)		0.0224 µM [falling, full curve, poor fit]
Cc1cccc(C(=O)Nc2scc(CC(C)C)c2C(=O)O)c1	14.1 µM [rising, single point]	22.4 µM [rising, single point]
CCC(=O)Nc1cccc(C(=O)/C=C/c2ccccc2)c1	0.282 µM [falling, full curve]	0.141 µM [falling, full curve]

Part of the list above in order of number of heavy atoms, high to low:
SMILES	AC50 [1]	AC50 [2]
CCOC(=O)c1c(NC(=O)c2ccc(S(=O)(=O)N3CCC(C)CC3)cc2)sc2c1CCN(CC)C2	35.5 µM [falling, single point]	35.5 µM [falling, single point]
O=C1OC(c2cccs2)=N/C1=C/c1ccc(-c2cccc(C(=O)O)c2)o1		31.6 µM [rising, single point]
Cc1c(C)n2c3c(cccc13)CC2	0.0251 µM [rising, full curve, poor fit]	0.0282 µM [rising, full curve, poor fit]
